This experiment in a line: qHTS Assay to Find Inhibitors of Chronic Active B-Cell Receptor Signaling. As to conditions: ABC-DLBCL IkBa-CBG/CBR reporter, luminescence ratio (green luciferase fused to IkBa over red control in TMD8 lymphoma cells), 4 h. In a few lines: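 Compounds up to 46 uM were incubated four hours with TMD8 cells whose green CBG68 luciferase is fused to IkappaBalpha; red CBR luminescence normalised the signal, and concentration-effect curves were fitted to fusion, red and ratio data.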
Background: Quantitative high-throughput screening tests each substance at several concentrations.

Where [1] appears, read: measured here: CBR red luminescence, cell number.
Where [2] appears, read: measured here: IkBa-CBG green luminescence.

Some of the results follow. These are further read-outs of the screen, such as a control signal, another cell line or another target. No call is given for them. Compounds called inactive in the main read-out are mostly missing here. Words in brackets tell the shape of the fitted curve; partial curves, single points and poor fits give uncertain potencies.

Usually AC50 stands for the concentration at which the activity in the assay is half-maximal. Turning to `Cc1[nH]c2ccccc2c1C(=O)CCl`, the AC50 is, setting by setting: under setting [1], 31.6 µM [rising, single point]; under setting [2], 22.4 µM [falling, single point].

On to `O=C(c1cc2nc(-c3ccco3)cc(C(F)(F)F)n2n1)N1CCN(c2ccccn2)CC1`, for which, under setting [1], the AC50 was 6.51 µM [falling, partial curve, poor fit].

For the compound `COc1cc(C2C(C#N)=C(N)Oc3cc(N(C)C)ccc32)cc2c1OCO2` (configuration not stated), the concentration at half-maximal activity (AC50) reads like this: under setting [1], 2 µM [rising, partial curve, poor fit]; under setting [2], 0.562 µM [falling, full curve, poor fit].

For `Cc1c(Cl)c(C(=O)Nc2nc3ccccc3n2CCN2CCCCC2)nn1C`, the AC50 under setting [1] was 11.6 µM [falling, partial curve].

Take `NC(=O)c1cc2ccncc2c2ccccc12`: the AC50 under setting [1] is 11.2 µM [falling, partial curve, poor fit].

As to `CCCCC[C@H](O)/C=C/[C@@H]1[C@@H](C/C=C\CCCC(=O)O)[C@H]2CO[C@@H]1C2`, the AC50 under setting [2] is 10.3 µM [falling, partial curve].

In the case of `COC(=O)c1cc(=O)n2c(sc3ccccc32)c1C#N`, the AC50 under setting [1] is 4.47 µM [falling, full curve].

For `O=C(COC(=O)c1oc2ccccc2c1CSc1ccc(Cl)cc1)NC1CCCC1`, under setting [1], the AC50 was 20.6 µM [rising, single point].

For `Nc1ccc2nc(-c3cc(Cl)c(N)c(Cl)c3)[nH]c2c1`, the AC50 under setting [1] is 5.17 µM [falling, partial curve].

With `O=C(NCc1nnc(SCC(=O)N2CCN(c3ccccc3)CC2)o1)c1ccccc1`, the AC50 under setting [1] was 11.2 µM [rising, partial curve, poor fit].

`Brc1ccc(-c2csc(Nc3nc(-c4ccc(Br)cc4)cs3)n2)cc1`: the AC50 under setting [1] was 1.26 µM [rising, full curve, poor fit].

For `CC(=O)c1ccc(C(=O)N2CCCC(CCC(=O)N(C)CCc3ccccn3)C2)s1` (configuration not stated), the AC50 under setting [1] was 35.5 µM [rising, single point].

Take `Cc1ccc(-c2nc3cc(N)ccc3o2)cc1Br`: the AC50 under setting [1] was 4.47 µM [rising, partial curve, poor fit].

Consider `COCCn1nnnc1C(c1cc2ccc(C)cc2[nH]c1=O)N(Cc1ccco1)Cc1cccs1` (configuration not stated), for which the concentration at half-maximal activity (AC50) under setting [1] is 28.2 µM [falling, single point].

For the compound `O=C1c2ccccc2NC(c2cccc([N+](=O)[O-])c2)N1CCc1ccccc1` (configuration not stated), the half-maximal activity concentration (AC50) under setting [1] was 3.16 µM [rising, partial curve, poor fit].

Consider `COc1ccc(N2CCN(c3cc(C)c4ccc(C)cc4n3)CC2)cc1`, for which the AC50 under setting [1] is 0.631 µM [rising, full curve, poor fit].

For `BrCCOCCOc1ccc2ccccc2c1`, under setting [1], the AC50 is 11.6 µM [rising, partial curve].

Turning to `CCn1ncc(Br)c1C(=O)Nc1ncc(C)s1`, the concentration at half-maximal activity (AC50) under setting [1] is 7.08 µM [falling, partial curve].

For the compound `CCOC(=O)c1c(C)nc2sc(C(N)=O)c(N)c2c1-c1ccccc1`, the AC50 under setting [1] was 6.51 µM [rising, single point].

On to `O=C(NCc1ccccc1)c1cc[n+](CC(=O)c2cccs2)cc1`, for which, under setting [1], the half-maximal activity concentration (AC50) is 0.794 µM [rising, full curve, poor fit].

Regarding `CCOC(=O)c1ccccc1NS(=O)(=O)c1ccc(C)cc1`, the AC50 under setting [1] is 13 µM [rising, partial curve, poor fit].

`Cc1ccc(N(CC(=O)NC2CCCCC2)C(=O)CCC(=O)Nc2nccs2)cc1`: under setting [1], the AC50 was 35.5 µM [falling, single point].

On to `Cc1c(NC(=O)c2cccc(NC(=O)COc3ccccc3C#N)c2)c(=O)n(-c2ccccc2)n1C`, for which the concentration at half-maximal activity (AC50) under setting [1] was 29.1 µM [falling, single point].

Turning to `O=C(N/N=C/c1cccc(Cl)c1)C1CCCC1`, the concentration at half-maximal activity (AC50) under setting [1] was 15.8 µM [falling, single point].

For `COc1ccccc1CNC(=O)C1CCC(CNC(=O)[C@@H]2Cc3ccccc3CN2)CC1` (some centres not stated), the AC50 under setting [1] was 11.2 µM [falling, partial curve, poor fit].

On to `C=CCn1ccc(=NC=C(C#N)C#N)c2ccccc21`, for which the AC50 under setting [1] is 6.31 µM [falling, single point].

In the case of `O=C(CSc1nc2ccccc2c(=O)[nH]1)Nc1ccc(S(=O)(=O)N2CCCC2)cc1`, the AC50 under setting [1] is 20 µM [falling, partial curve, poor fit].

Take `COc1ccc(/C=C/C(=O)NC2CCCCC2C)cc1` (configuration not stated): the AC50 under setting [1] is 6.31 µM [falling, partial curve, poor fit].

In the case of `Oc1ccc2ccccc2c1/C=N/Nc1nnc(-c2ncc[nH]2)c2ccccc12`, under setting [1], the AC50 is 0.0291 µM [falling, full curve, poor fit].

For `O=C(CSc1ccc(-c2ccncc2)nn1)c1ccccc1`, the AC50 under setting [1] is 35.5 µM [falling, partial curve, poor fit].

On to `C=CCn1cnc2c(sc3nc(C)cc(C)c32)c1=O`, for which, under setting [1], the AC50 was 20 µM [rising, single point].

As for `CCc1ccccc1NC(=O)c1ccc(NCCc2ccccc2)c([N+](=O)[O-])c1`, under setting [1], the AC50 is 2.59 µM [falling, full curve, poor fit].

For `CCCC[n+]1ccn(-c2nc3ccccc3nc2[N-]S(=O)(=O)c2cccs2)c1`, the AC50 under setting [1] is 2.51 µM [falling, full curve, poor fit].

Regarding `Cc1ccccc1-n1c(SCC(N)=O)nc2sc(-c3ccccc3)cc2c1=O`, under setting [1], the AC50 is 7.31 µM [falling, partial curve, poor fit].

As for `Cc1ccc2nc(-c3ccccc3N)[nH]c2c1`, the AC50 under setting [1] is 14.1 µM [falling, single point].

For the compound `CCc1ccc(C(=O)Nn2cnc3ccccc3c2=O)cc1`, under setting [1], the AC50 was 14.1 µM [falling, single point].

For the compound `N#Cc1c(NC(=O)Cn2c(=O)oc3ccccc32)oc(-c2ccccc2)c1-c1ccccc1`, the AC50 under setting [1] was 29.1 µM [falling, single point].

For the compound `O=c1oc2ccccc2cc1-c1cn2cccnc2n1`, the AC50 under setting [1] was 1.84 µM [falling, full curve].

Turning to `Fc1ccc(-c2ccc(/C=N/n3cnnc3)o2)cc1`, the AC50 under setting [1] is 20 µM [rising, single point].

Regarding `Cc1c(F)cccc1NC(=O)CCCCCC1NC(=O)NC1C` (configuration not stated), the AC50 under setting [1] was 6.31 µM [falling, partial curve, poor fit].

In the case of `Cc1nnsc1-c1nnc(SCC(=O)c2ccc(C#N)cc2)n1C1CC1`, the AC50 under setting [1] was 8.91 µM [falling, partial curve].

As to `CC(=O)Nc1ccc(C(=O)CSc2nnc3scc(-c4ccccc4)n23)cc1`, the concentration at half-maximal activity (AC50) under setting [1] is 3.98 µM [rising, partial curve, poor fit].

On to `CCC(CO)Oc1cc(NC(=O)c2ccc(Cl)cc2)c2ncn(C(C)C)c2c1` (configuration not stated), for which, under setting [1], the concentration at half-maximal activity (AC50) is 2.91 µM [rising, single point].

`COc1ccc(C(=O)Nc2ccc(O)cc2C(=O)O)cc1`: the AC50 under setting [1] was 1.58 µM [falling, full curve].

Regarding `O=C(Cc1ccccc1)N1CCc2[nH]nc(-c3ccccc3)c2C1`, under setting [1], the AC50 is 0.1 µM [rising, full curve, poor fit].

`CCN(CC)C(=O)CSc1nc2cc3c(cc2c(=O)n1CCCCCC(=O)NCc1ccc(OC)cc1)OCO3`: under setting [1], the half-maximal activity concentration (AC50) was 15.8 µM [rising, partial curve, poor fit].

As to `N#CCCn1cc(/C=C2\NC(=S)N(c3ccccc3)C2=O)c(-c2ccc(F)cc2)n1`, under setting [1], the AC50 is 6.31 µM [falling, partial curve, poor fit].

`COc1ccc(CN(C)C(=O)CNC(=O)c2ccc3ccccc3c2)c(OC)c1`: the AC50 under setting [1] is 25.1 µM [falling, single point].

In the case of `COc1ccc(-c2c(C#N)c(N)nc3c2CCc2ccccc2-3)cc1OC`, under setting [1], the AC50 is 11.2 µM [falling, partial curve].

With `Cc1csc(SC(C)c2nc3scc(-c4ccccc4)c3c(=O)[nH]2)n1` (configuration not stated), the AC50 under setting [1] was 11.2 µM [rising, partial curve, poor fit].

On to `O=C(NCc1ccccn1)C1CC(c2ccccc2O)=NO1` (configuration not stated), for which the AC50 under setting [1] is 11.2 µM [falling, single point].

Regarding `O=C(CN1C(=O)S/C(=C\c2ccccc2F)C1=O)NC1C=CS(=O)(=O)C1` (configuration not stated), the AC50 under setting [1] is 6.31 µM [falling, full curve].

With `O=C(CC(c1ccco1)S(=O)(=O)c1ccccc1)c1ccc(F)cc1` (configuration not stated), the AC50 under setting [1] was 29.1 µM [falling, single point].

For the compound `COc1cc2c(cc1OC)C(c1ccc(Br)cc1)NC(=O)C2` (configuration not stated), the AC50 under setting [2] is 22.4 µM [falling, single point].

Regarding `CN(C)S(=O)(=O)c1cccn1-c1ncc(C(F)(F)F)cc1Cl`, the AC50 under setting [1] was 29.1 µM [rising, single point].

On to `COc1ccccc1NS(=O)(=O)c1ccc2c(c1)n(C)c(=O)n2C`, for which the AC50 runs as follows: under setting [1], 7.31 µM [falling, partial curve]; under setting [2], 11.6 µM [rising, partial curve, poor fit].

In the case of `COc1ccc(C(=O)N2CCN(CCNC(=O)C(=O)Nc3ccc(F)cc3)CC2)cc1OC`, the AC50 under setting [1] was 0.447 µM [falling, full curve, poor fit].

In the case of `O=C1/C(=C\c2ccncc2)CCc2ccccc21`, the AC50 under setting [1] is 20.6 µM [falling, single point].

For the compound `N=C1C=CC=C2C1=NC1(CCCCC1)N2O`, the AC50 under setting [1] was 20.6 µM [rising, single point].

As for `COc1ccccc1CNC(=O)COC(=O)C1CCN(S(=O)(=O)c2ccccc2)CC1`, the AC50 runs as follows: under setting [1], 29.1 µM [falling, single point]; under setting [2], 29.1 µM [rising, partial curve, poor fit].

On to `CC(C)(C)N/N=C/c1c(O)n(-c2ccc(Cl)cn2)c(=O)c2ccccc12`, for which the AC50 under setting [1] was 16.4 µM [falling, partial curve].

On to `CC[n+]1c(/C=C/N(C)c2ccccc2)oc2ccccc21`, for which, under setting [1], the AC50 is 14.6 µM [falling, partial curve, poor fit].

As to `Cc1cc(C)n(Cc2ccc(NC(=O)c3ccc(COc4ccccc4Br)cc3)cc2)n1`, under setting [1], the AC50 was 14.1 µM [falling, partial curve, poor fit].

The record behind these values is PubChem BioAssay AID493014 (National Center for Advancing Translational Sciences (NCATS), 2011).
